Data as given in publication doi:10.1101/2023.01.23.525122 (bioRxiv, 2023).
Substitutions are numbered along the chain they refer to. These are yes or no findings as the source states them, for the method shown. Some entries that bind do so weakly or less than the wild type.

Columns and labels:
Test in all cases: SDS-resistant oligomer detection by SDS-PAGE
NPM1(1–259) = NPM1(1–259) (UniProt P06748)
[1] = biological target: NPM1/nucleophosmin, wild type (UniProt P06748)
NPM1-236A = NPM1-236A (UniProt P06748)
NPM1-234567A = NPM1-234567A (UniProt P06748)

NPM1(1–259) (from UniProt P06748 1-259) (domain or fragment)
binding (NPM1(1–259)): binds

NPM1/nucleophosmin, wild type (from UniProt P06748 1-294)
binding [1]: binds weakly

B1: NPM1-236A (natural protein, UniProt P06748 1-294, looked up)
chain: MAASMAMDMSPLRPQNYLFGCELKADKDYHFKVDNDENEHQLSLRTVSLGAGAKDELHIVEAEAMNYEGSPIKVTLATLKMSVQPTVSLGGFEITPPVVLRLKCGSGPVHISGQHLVAVEEDAESEDEEEEDVKLLSISGKRSAPGGGSKVPQKKVKLAADEDDDDDDEEDDDEDDDDDDFDDEEAEEKAPVKKSIRDTPAKNAQKSNQNGKDSKPSSTPRSKGQESFKKQEKTPKTPKGPSSVEDIKAKMQASIEKGGSLPKVEAKFINYVKNCFRMTDQEAIQDLWQWRKSL
binding (NPM1-236A): binds weakly

B2: NPM1-234567A (natural protein, UniProt P06748 1-294, looked up)
chain: B1 chain with S4A, M5A, M7A
binding (NPM1-234567A): binds weakly
